This note sets out measurements from PubChem BioAssay AID248 (DTP/NCI, 2004).

The test system of the experiment is L1210 leukemia ip in BDF1 mice, survival T/C. Briefly: NCI In Vivo Anticancer Drug Screen. Data for tumor model L1210 Leukemia (intraperitoneal) in B6D2F1 (BDF1) mice. Conditions: T/C endpoint: mean survival time, higher T/C = longer survival.
Where [1] appears, read: dose: 400.0 mg/kg/injection, schedule: Q01DX009 (ip), vehicle: saline.

The list does not hold the whole screen: it is rich in T/C values a quarter to a half above the control, in often repeated tests (any T/C) and in doses without a T/C. Further doses and runs are listed elsewhere. T/C: endpoint of the treated group in % of that of the vehicle group. Some doses have a count of surviving animals in place of a T/C: the source files T/C as zero there, which appears to mark a toxic dose or a test without result, not a measured value. Some doses without a T/C left all or most animals alive at the check, yet need not have been tolerated: survival well below the control is almost never listed, so the zero probably covers shortened survival too. Counts of survivors are from the toxicity check (mostly the fifth day) where no day follows; animals may have died later. Schedule codes are those of the source, read here as Q, the interval in days (D) or hours (H), X, the number of doses. Where survival is the endpoint, this PubChem deposit counts one and a half times the control or more as active, and values a quarter to a half above the control carry no call in these data; other NCI protocols may use other cut-offs.

For `O=Cc1ccc(O)c(CN2CCCCC2)c1`, the survivor count (dose: 100.0 mg/kg/injection, schedule: Q04DX003 (ip), vehicle: saline sonified) is 0 of 6; the survivor count (dose: 200.0 mg/kg/injection, schedule: Q04DX003 (ip), vehicle: saline sonified) was 0 of 6; the survivor count (dose: 400.0 mg/kg/injection, schedule: Q04DX003 (ip), vehicle: saline sonified) is 0 of 6.

Regarding `CC1(OC(=O)c2ccc([N+](=O)[O-])cc2)CC2CC1c1ccccc12` (stereo not given), the survivor count (dose: 100.0 mg/kg/injection, schedule: Q01DX001 (ip), vehicle: carboxymethylcellulose (CMC)) is 4 of 4.

For the compound `CCCC[n+]1cccc2ccccc21`, the survivor count by setting is: (dose: 100.0 mg/kg/injection, schedule: Q01DX001 (ip), vehicle: Klucel (hydroxypropylcellulose) (HPC)) 1 of 6; (dose: 200.0 mg/kg/injection, schedule: Q01DX001 (ip), vehicle: carboxymethylcellulose (CMC)) 0 of 6; (dose: 400.0 mg/kg/injection, schedule: Q01DX001 (ip), vehicle: carboxymethylcellulose (CMC)) 0 of 6.

As to `O=NN(CCF)C(=O)Nc1ccccc1`, the T/C (dose: 9.0 mg/kg/injection, schedule: Q01DX001 (ip), vehicle: other) is 135 % of control. Besides, the survivor count reads like this: (dose: 37.0 mg/kg/injection, schedule: Q01DX001 (ip), vehicle: other) 2 of 6; (dose: 50.0 mg/kg/injection, schedule: Q01DX001 (ip), vehicle: other) 0 of 6; (dose: 75.0 mg/kg/injection, schedule: Q01DX001 (ip), vehicle: other) 0 of 6; (dose: 100.0 mg/kg/injection, schedule: Q01DX001 (ip), vehicle: other) 0 of 6; (dose: 200.0 mg/kg/injection, schedule: Q01DX001 (ip), vehicle: other) 0 of 6; (dose: 250.0 mg/kg/injection, schedule: Q01DX001 (ip), vehicle: other) 0 of 6. Also, the survivor count (dose: 300.0 mg/kg/injection, schedule: Q01DX001 (ip), vehicle: other) is 0 of 6.

For `N#Cc1cn(C2OC(CO)C(O)C2O)c2ncncc12` (stereo not given), under “dose: 100.0 mg/kg/injection, schedule: Q01DX005 (ip), vehicle: saline”, the T/C is 139 % of control. For the same compound, the survivor count (dose: 200.0 mg/kg/injection, schedule: Q01DX005 (ip), vehicle: saline) was 0 of 6.

Consider `COC1OCN(C)CC1(C)C` (stereo not given), for which the survivor count (dose: 400.0 mg/kg/injection, schedule: Q04DX003 (ip), vehicle: Klucel (hydroxypropylcellulose) (HPC)) was 0 of 6.

For the compound `CNC(=S)Nc1ncn(C=O)n1`, the survivor count is, setting by setting: (dose: 100.0 mg/kg/injection, schedule: Q01DX009 (ip), vehicle: saline) 6 of 6; (dose: 200.0 mg/kg/injection, schedule: Q01DX009 (ip), vehicle: saline) 6 of 6; under setting [1], 0 of 6.

As for `O=S(=O)(O)O.[NH-]CC(N)=O.[NH-]CC(N)=O.[Ni+2]`, the survivor count is 6 of 6 (dose: 25.0 mg/kg/injection, schedule: Q01DX009 (ip), vehicle: water); 0 of 6 (dose: 50.0 mg/kg/injection, schedule: Q01DX009 (ip), vehicle: water); 0 of 6 (dose: 100.0 mg/kg/injection, schedule: Q01DX009 (ip), vehicle: water); 5 of 6 (dose: 100.0 mg/kg/injection, schedule: Q04DX003 (ip), vehicle: water); 1 of 6 (dose: 200.0 mg/kg/injection, schedule: Q04DX003 (ip), vehicle: water); 0 of 6 (dose: 400.0 mg/kg/injection, schedule: Q04DX003 (ip), vehicle: water).

Regarding `Cc1cc(-c2cc(C)c(O)c(C(C)(C)C)c2)cc(C(C)(C)C)c1O`, the survivor count (dose: 100.0 mg/kg/injection, schedule: Q04DX002 (ip), vehicle: gum acacia) is 3 of 3; the survivor count (dose: 200.0 mg/kg/injection, schedule: Q04DX002 (ip), vehicle: gum acacia) was 3 of 3; the survivor count (dose: 400.0 mg/kg/injection, schedule: Q04DX002 (ip), vehicle: gum acacia) is on record as 3 of 3.

Consider `O=[N+]([O-])c1ccc(/C=C2\c3ccccc3-c3nc4ccccc4nc32)cc1`, for which the survivor count (dose: 150.0 mg/kg/injection, schedule: Q01DX001 (ip), vehicle: saline) is on record as 6 of 6.

Turning to `C[S+](C)Cc1ccc(C(=O)Oc2ccc([N+](=O)[O-])cc2)cc1`, the survivor count reads like this: (dose: 200.0 mg/kg/injection, schedule: Q04DX003 (ip), vehicle: saline) 5 of 6; under setting [1], 0 of 6; (dose: 400.0 mg/kg/injection, schedule: Q04DX003 (ip), vehicle: saline) 2 of 6.

Regarding `O=C(S)c1ccccc1.[Pb]`, the survivor count (dose: 400.0 mg/kg/injection, schedule: Q04DX002 (ip), vehicle: saline with Tween-80) was 0 of 3.
